# Experimental data reported in PMC7819943, “Rice protein-binding microarrays: a tool to detect cis-acting elements near promoter regions in rice”.
# The chains behind the UniProt entries cited, without tags or fusion partners.
# UniProt Q0JBA9, entry or part of it: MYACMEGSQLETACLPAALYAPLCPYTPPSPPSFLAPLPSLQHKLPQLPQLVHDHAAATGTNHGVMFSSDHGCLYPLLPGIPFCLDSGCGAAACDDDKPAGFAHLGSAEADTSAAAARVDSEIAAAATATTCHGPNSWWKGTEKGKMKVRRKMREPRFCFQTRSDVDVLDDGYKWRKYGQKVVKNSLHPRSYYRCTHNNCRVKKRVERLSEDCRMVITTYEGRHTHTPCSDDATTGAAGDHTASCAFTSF
# The list shows a part of the results.
# Biological target: OsWRKY34 (Oryza sativa, UniProt Q0JBA9 1-250)
# Test: protein-binding microarray (RPBM); PBS, 2% BSA, 51.3 ng/ul salmon testes DNA, 50 uM zinc acetate, 200 nM TF, 25 C, 1 h; high values mean tight binding
# Conditions: protein: recombinant; tags: N-terminal polyhistidine and DsRed monomer fusion (pET32a); label: CyDye5-dUTP incorporated in the synthesized complementary strand; 3' TTTTT single-stranded linker to array surface; dsDNA, one strand shown
# Procedure, shortened: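 In PBS with 2% BSA, salmon testes DNA and 50 µM zinc acetate, 200 nM protein was incubated on a custom Agilent array at 25 °C for 1 h and then washed off. The array had been made double-stranded by primer extension with Cy5-dUTP and blocked with 2% BSA. The proteins were transcription factors fused N-terminally to polyhistidine and DsRed, expressed in E. coli BL21-CodonPlus and purified on Ni–NTA. The binding signal is per-feature fluorescence intensity (arbitrary units) from an Axon 4000B scanner.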
row,Sequence,binding signal
1,GATTTTGACGTCTATGATGAGAGGGGCGATGTGTATCAAACGGAGTCACCTAGTGCAG,8760 fluorescence intensity (a.u.)
2,CTCGCTCGCTGCCACCGCCTCCTTCGCTGCCACCATCTCCCGGAGTCACCTAGTGCAG,10900 fluorescence intensity (a.u.)
3,CTCTCTCCTCGTCCTGCCTCGCGACTCGGCTCCGCGAAGCCGGAGTCACCTAGTGCAG,11700 fluorescence intensity (a.u.)
4,CTTAGCCTAACAAAACTAATACTCGCCATGCGTCCATCCCCGGAGTCACCTAGTGCAG,8210 fluorescence intensity (a.u.)
5,AAAACCACCAAATCGCTTATTTTGCTTCGTTGTGATTTCCCGGAGTCACCTAGTGCAG,11000 fluorescence intensity (a.u.)
6,AAAAAAGTCAACCCATGTACACCGTCCGATCTCCATCCGACGGAGTCACCTAGTGCAG,8110 fluorescence intensity (a.u.)
7,ATCAATGGTATAGTTTTCTTGGATAAAATTTCCACTACCACGGAGTCACCTAGTGCAG,8840 fluorescence intensity (a.u.)
8,CGCATCACATCCCGGTGAGCATCCCTATCCGTCACGCTCACGGAGTCACCTAGTGCAG,9710 fluorescence intensity (a.u.)
9,GGACTGGGGCAGGAGGGAGGGGAGGAGCAGGTCGGAGAGTCGGAGTCACCTAGTGCAG,9740 fluorescence intensity (a.u.)
10,AACCGGACAGGTGTGGGCGTTGACTAGTCTTCTTTAGTTTCGGAGTCACCTAGTGCAG,13300 fluorescence intensity (a.u.)
11,ATGATTTGTTCCCACGACCTCCATTGTACCGAAATAATATCGGAGTCACCTAGTGCAG,9050 fluorescence intensity (a.u.)
12,GCACGGCGACGATTTCCGGTGCACACATGCTCACTACTGTCGGAGTCACCTAGTGCAG,9900 fluorescence intensity (a.u.)
13,TGTTTCGGTCACTCCTGGCTTGAATTATCAGCAGTGACGACGGAGTCACCTAGTGCAG,8330 fluorescence intensity (a.u.)
14,TTTTGCCACCGACCTGCTTTGCCGGCCGGCCGGCCGCCCCCGGAGTCACCTAGTGCAG,8300 fluorescence intensity (a.u.)
15,AGTTGAACACGTACACACACATTTCTTGAACAGTTAAATACGGAGTCACCTAGTGCAG,9320 fluorescence intensity (a.u.)
16,TAGTGGTGAGATATTTAATTGCGCGGGGCCCCGCCGTACTCGGAGTCACCTAGTGCAG,9660 fluorescence intensity (a.u.)
17,ACTACACCCACTCACAACATAGTTATACCACGATTAAAACCGGAGTCACCTAGTGCAG,8920 fluorescence intensity (a.u.)
18,CTCCTCTGAACCTTCCACACTGAAAACCCAGCTGCCTTCCCGGAGTCACCTAGTGCAG,8690 fluorescence intensity (a.u.)
19,ATATATATATATATATATATATATGTGCGCGCGCGCTTGCCGGAGTCACCTAGTGCAG,8780 fluorescence intensity (a.u.)
20,CAACAGACTCTTCCCCTTCGCTCGCTCGCCTCCTCTTTCCCGGAGTCACCTAGTGCAG,8220 fluorescence intensity (a.u.)
21,GACTGGGCTTCGGGTTCCATTTGATATTTTTCAACCTGCACGGAGTCACCTAGTGCAG,8370 fluorescence intensity (a.u.)

# Three entries from above, bar-delimited.
row | Sequence | binding signal
1 | GATTTTGACGTCTATGATGAGAGGGGCGATGTGTATCAAACGGAGTCACCTAGTGCAG | 8760 fluorescence intensity (a.u.)
11 | ATGATTTGTTCCCACGACCTCCATTGTACCGAAATAATATCGGAGTCACCTAGTGCAG | 9050 fluorescence intensity (a.u.)
20 | CAACAGACTCTTCCCCTTCGCTCGCTCGCCTCCTCTTTCCCGGAGTCACCTAGTGCAG | 8220 fluorescence intensity (a.u.)

# Further results follow.

row,Sequence,binding signal
1,GGGGCACGCACGAAACTCCTCGTCTTCTTCCGCTATTACTCGGAGTCACCTAGTGCAG,11600 fluorescence intensity (a.u.)
2,ATAAGTCGTGCGTAACTAATCCGGACTCCATGCCGTTTTCCGGAGTCACCTAGTGCAG,8920 fluorescence intensity (a.u.)
3,TCTTTTGTGCAAATTTAAGTGCCTTCTTGGCTAACCTGTCCGGAGTCACCTAGTGCAG,8600 fluorescence intensity (a.u.)
4,CACATGTTTAACCGTTCGTCTTATTCAAATTATTTGTGAACGGAGTCACCTAGTGCAG,13600 fluorescence intensity (a.u.)
5,GATTCATTCCTCCTGTGGTCATGCACTAATTTTCGTATATCGGAGTCACCTAGTGCAG,8400 fluorescence intensity (a.u.)
6,GTCCTATCTGCGCTGCTCCATTAGCTACCTACACAGTTCGCGGAGTCACCTAGTGCAG,11100 fluorescence intensity (a.u.)
7,CGTCTCCTCTCTCTCTCTCTCTCTCTCTCGCCTCCGCTTCCGGAGTCACCTAGTGCAG,8240 fluorescence intensity (a.u.)
8,CGCCCACCTGCCGCTGCAATATATTTCGCCGCGCCCCGCGCGGAGTCACCTAGTGCAG,8760 fluorescence intensity (a.u.)
9,CCTACCGTGTACTTTTTTCTTTCTTTTCTTTTATTTTCTACGGAGTCACCTAGTGCAG,14400 fluorescence intensity (a.u.)
10,GGCACGTTCAATACTACCTCCGTTCCAAAATATAAATGATCGGAGTCACCTAGTGCAG,8950 fluorescence intensity (a.u.)
11,GAGTAGCTTTGCTGATGATGCCATATACTAATATCTCCTTCGGAGTCACCTAGTGCAG,8380 fluorescence intensity (a.u.)
12,AGTTATAGTACTAGGCTAATTTATTTCCTCACCATTTTCACGGAGTCACCTAGTGCAG,8390 fluorescence intensity (a.u.)
13,CGTCCACACACTCATGAATCATCGCTCACTCAAACAGCCTCGGAGTCACCTAGTGCAG,10800 fluorescence intensity (a.u.)
14,GGTCCGATAAATATTTAATTTTTACTTTTGGCTGGCGACACGGAGTCACCTAGTGCAG,9620 fluorescence intensity (a.u.)
15,AGTTTCATATATATTACTTACCATTCTAGCATTTCATTTTCGGAGTCACCTAGTGCAG,10300 fluorescence intensity (a.u.)
16,AACCACATCTTTACCACTTATGTCGGCGAACTTTCATATGCGGAGTCACCTAGTGCAG,11300 fluorescence intensity (a.u.)
17,TTTTCCTTTGAGTCTATCTCTTTCATCAAATTCCTGTGTTCGGAGTCACCTAGTGCAG,8720 fluorescence intensity (a.u.)
18,ACCCCACGGATCGCACCCCTCGCCTTCACCTCCTATAAATCGGAGTCACCTAGTGCAG,8520 fluorescence intensity (a.u.)
19,GAGCATCTTGTGTTGTCCGGTTCCAAAATTGTGTGTATTTCGGAGTCACCTAGTGCAG,9560 fluorescence intensity (a.u.)
20,GCCACCGCCGCCTGCTCCGATCCCCATCCATCGCGCGAGCCGGAGTCACCTAGTGCAG,9430 fluorescence intensity (a.u.)
21,ATCCTCTTGCAGTTTTTCTATTGGTTTCTGCCTCGCCAGCCGGAGTCACCTAGTGCAG,9830 fluorescence intensity (a.u.)
